These are yes or no findings as the source states them, for the method shown. In cells and extracts the contact can be indirect. Some results given as binding are weak or reduced against the parent protein; the word gives no strength. For some assays here: Where a sequence is shown, tags or fusion partners need not be part of it.
T1: TGFBR3-FLAG (UniProt Q03167)
T1 sequence: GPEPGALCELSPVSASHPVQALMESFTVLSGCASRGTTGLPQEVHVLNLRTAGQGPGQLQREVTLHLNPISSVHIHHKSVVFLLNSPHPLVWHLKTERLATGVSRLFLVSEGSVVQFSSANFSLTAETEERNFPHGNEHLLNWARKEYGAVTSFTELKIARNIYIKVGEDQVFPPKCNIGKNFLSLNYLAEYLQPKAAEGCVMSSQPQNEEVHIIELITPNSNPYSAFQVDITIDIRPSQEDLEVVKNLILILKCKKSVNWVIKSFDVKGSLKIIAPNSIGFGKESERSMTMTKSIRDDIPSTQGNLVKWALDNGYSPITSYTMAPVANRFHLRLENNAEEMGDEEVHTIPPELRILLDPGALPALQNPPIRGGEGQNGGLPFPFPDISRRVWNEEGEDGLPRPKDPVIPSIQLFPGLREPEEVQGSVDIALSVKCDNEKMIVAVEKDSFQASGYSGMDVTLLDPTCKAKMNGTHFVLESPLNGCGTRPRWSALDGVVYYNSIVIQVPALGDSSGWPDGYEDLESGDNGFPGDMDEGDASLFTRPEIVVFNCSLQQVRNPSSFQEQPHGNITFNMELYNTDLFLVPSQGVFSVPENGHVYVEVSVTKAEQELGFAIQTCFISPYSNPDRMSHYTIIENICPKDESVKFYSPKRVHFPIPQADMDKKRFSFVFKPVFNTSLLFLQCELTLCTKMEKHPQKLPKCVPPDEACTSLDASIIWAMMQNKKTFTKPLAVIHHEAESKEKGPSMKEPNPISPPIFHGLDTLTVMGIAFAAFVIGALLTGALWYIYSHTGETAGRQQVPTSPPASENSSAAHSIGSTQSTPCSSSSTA

T2: TGFBR3, endogenous (human (endogenous in 143B)) (UniProt Q03167)
T2 sequence: T1 sequence

B1: SDC4-HA (Syndecan-4, HA-tagged) (protein, UniProt P31431-1 19-198)
chain: ESIRETEVIDPQDLLEGRYFSGALPDDEDVVGPGQESDDFELSGSGDLDDLEDSMIGPEVVHPLVPLDNHIPERAGSGSQVPTEPKKLEENEVIPKRISPVEESEDVSNKVSMSSTVQGSNIFERTEVLAALIVGGIVGILFAVFLILLLMYRMKKKDEGSYDLGKKPIYKKAPTNEFYA
B2: SDC4 (Syndecan-4), endogenous (protein, UniProt P31431-1 19-198)
chain: B1 chain

Assays:
TGFBR3-FLAG = molecular target: T1, TGFBR3-FLAG; assay: co-IP; exogenous: 143B cell lysate (IP lysis buffer), antibodies against HA-tag or FLAG-tag with Protein A+G magnetic beads, 4 °C overnight, immunoblot
[1] = molecular target: T2, TGFBR3, endogenous (human (endogenous in 143B)); assay: co-IP; endogenous: 143B cell lysate (IP lysis buffer), antibodies against SDC4 or TGFBR3 with Protein A+G magnetic beads, 4 °C overnight, immunoblot

| Binder | binding (TGFBR3-FLAG) | binding [1] |
| --- | --- | --- |
| B1 | binds |  |
| B2 |  | binds |

— publication PMC10766520
